Data as given in PubChem BioAssay AID1224828 (NIAID, 2016).
Test: 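Knock-downs that increase or decrease LPS-induced p65 nuclear translocation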 (primary screen). Cell system: mouse RAW264.7 G9 macrophage reporter cells (GFP-p65, Tnf promoter-mCherry). Knock-down reagent: siRNA pool against mouse genes, 100 nM. Time to read-out: 2 days siRNA transfection, then 40 min LPS before fixation. Challenge: LPS (Salmonella minnesota R595) at 10 ng/ml. Measured: 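Microscopy ratio of nuclear to perinuclear-ring GFP-p65 signal, scaled to the plate median; gene score is the average of two replicate robust z-scores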. Scale: p65 translocation robust z-score: higher = more nuclear NF-kappaB p65 after LPS than the plate median; nuclear/cytoplasmic p65 ratio: higher = more nuclear NF-kappaB p65. Rule for the call: 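Called active when z exceeds 3.3 or falls under -1.56 (median of Tlr4 controls), giving activity score of at least 50; no calls for control wells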. Calls: active = hit (p65 shift raised or lowered); inactive = no clear change.
The deposit covers about 17,000 reagents; below is a random part of them. 762 of them (4.5%) count as active. 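Active calls include both raised and lowered p65 entry, mostly lowered; wells with fewer than 50 cells lack a z-score.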 The raw values are shown without normalisation. No sequences are given here.

gene symbol,p65 translocation robust z-score,"nuclear/cytoplasmic p65 ratio, rep 1","nuclear/cytoplasmic p65 ratio, rep 2",low cell count flag,Outcome
Coq6 (GeneID 217707),0.35,1.62,1.85,enough cells to score,inactive
Grb7 (GeneID 14786),0.25,1.47,1.4,enough cells to score,inactive
Gzmb (GeneID 14939),1.16,1.58,1.53,enough cells to score,inactive
Sp3os (GeneID 100503849),0.33,1.48,1.42,enough cells to score,inactive
Atp7a (GeneID 11977),-0.59,1.59,1.46,enough cells to score,inactive
Smad1 (GeneID 17125),-2.29,1.28,1.16,enough cells to score,active
Samtor (GeneID 101148),1.91,1.83,2.2,enough cells to score,inactive
Ccp110 (GeneID 101565),0.01,1.44,1.46,enough cells to score,inactive
Mysm1 (GeneID 320713),1.6,1.64,1.76,enough cells to score,inactive
Ccdc43 (GeneID 52715),-1.23,1.33,1.65,enough cells to score,inactive
Cgb (retired record) (GeneID 94225),0.48,1.63,1.9,enough cells to score,inactive

Entries listed so far whose gene name begins with S or s:
gene symbol,p65 translocation robust z-score,"nuclear/cytoplasmic p65 ratio, rep 1","nuclear/cytoplasmic p65 ratio, rep 2",low cell count flag,Outcome
Sp3os (GeneID 100503849),0.33,1.48,1.42,enough cells to score,inactive
Smad1 (GeneID 17125),-2.29,1.28,1.16,enough cells to score,active
Samtor (GeneID 101148),1.91,1.83,2.2,enough cells to score,inactive

Additional results follow.
gene symbol,p65 translocation robust z-score,"nuclear/cytoplasmic p65 ratio, rep 1","nuclear/cytoplasmic p65 ratio, rep 2",low cell count flag,Outcome
Efl1 (GeneID 101592),0.31,1.44,1.46,enough cells to score,inactive
Adgra3 (GeneID 70693),0.59,1.57,1.69,enough cells to score,inactive
Ppard (GeneID 19015),-0.93,1.35,1.31,enough cells to score,inactive
Or5m3 (GeneID 258572),-0.04,1.74,1.5,enough cells to score,inactive
Them7 (GeneID 74088),0.1,1.72,1.31,enough cells to score,inactive
Ybey (GeneID 216119),1.56,1.67,1.65,enough cells to score,inactive
Rab38 (GeneID 72433),-1.98,1.24,1.18,enough cells to score,active
Vmn1r32 (GeneID 171188),-0.38,1.33,1.2,enough cells to score,inactive
Lrwd1 (GeneID 71735),0.41,1.41,1.47,enough cells to score,inactive
Acox3 (GeneID 80911),-0.28,1.58,1.62,enough cells to score,inactive
Or4d1 (GeneID 258407),0.17,1.62,1.53,enough cells to score,inactive
Bola3 (GeneID 78653),,1.13,1.27,fewer than 50 cells per well; well left out of scoring,inactive
Optc (GeneID 269120),-0.06,1.61,1.24,enough cells to score,inactive
